Measurements published in the supplement of paper PMC8728848.
The other results are listed elsewhere or left out.

Assays:
Experiment in all cases: glycan array binding signal (z-score within array); higher = stronger binding
Details in all cases: glycan notation: IUPAC condensed, linker removed
[1] = molecular target: Gal(a1-3)[Gal(a1-4)]Gal(b1-4)GlcNAc
Outline: (§1)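 The Consortium for Functional Glycomics database supplied 3228 glycan arrays, of which those lacking an available protein sequence were dropped. The binding signal, a within-array Z-score, was averaged across arrays of the same protein sequence and across linkers. Negative scores can be read as non-binding.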

[2] = molecular target: Gal(a1-4)Gal(b1-3)GlcNAc(b1-2)Man(a1-3)[Gal(a1-4)Gal(b1-3)GlcNAc(b1-2)Man(a1-6)]Man(b1-4)GlcNAc(b1-4)GlcNAc
Outline: as §1

[3] = molecular target: Gal(a1-4)Gal(b1-4)Glc
Outline: as §1

[4] = molecular target: Gal(a1-4)Gal(b1-4)GlcNAc
Outline: as §1

[5] = molecular target: Gal(a1-4)Gal(b1-4)GlcNAc(b1-2)Man(a1-3)[Gal(a1-4)Gal(b1-4)GlcNAc(b1-2)Man(a1-6)]Man(b1-4)GlcNAc(b1-4)GlcNAc
Outline: as §1

[6] = molecular target: Gal(a1-4)Gal(b1-4)GlcNAc(b1-3)Gal(b1-4)Glc
Outline: as §1

[7] = molecular target: Gal(a1-4)GlcNAc
Outline: as §1

[8] = molecular target: Gal(a1-6)Glc
Outline: as §1

[9] = molecular target: Gal(b1-2)Gal
Outline: as §1

[10] = molecular target: Gal(b1-3)Gal
Outline: as §1

[11] = molecular target: Gal(b1-3)Gal(b1-4)GlcNAc
Outline: as §1

[12] = molecular target: Gal(b1-3)Gal(b1-4)GlcNAc(b1-2)Man(a1-3)[Gal(b1-3)Gal(b1-4)GlcNAc(b1-2)Man(a1-6)]Man(b1-4)GlcNAc(b1-4)GlcNAc
Outline: as §1

[13] = molecular target: Gal(b1-3)GalNAc
Outline: as §1

[14] = molecular target: Gal(b1-3)GalNAc(a1-3)[Fuc(a1-2)]Gal(b1-4)Glc
Outline: as §1

[15] = molecular target: Gal(b1-3)GalNAc(a1-3)[Fuc(a1-2)]Gal(b1-4)GlcNAc
Outline: as §1

[16] = molecular target: Gal(b1-3)GalNAc(b1-3)Gal
Outline: as §1

[17] = molecular target: Gal(b1-3)GalNAc(b1-3)Gal(a1-4)Gal(b1-4)Glc
Outline: as §1

[18] = molecular target: Gal(b1-3)GalNAc(b1-4)Gal(b1-4)Glc
Outline: as §1

[19] = molecular target: Gal(b1-3)GalNAc(b1-4)[Neu5Ac(a2-3)]Gal(b1-4)Glc
Outline: as §1

[20] = molecular target: Gal(b1-3)GlcNAc
Outline: as §1

[21] = molecular target: Gal(b1-3)GlcNAc(a1-3)Gal(b1-4)GlcNAc
Outline: as §1

[22] = molecular target: Gal(b1-3)GlcNAc(a1-6)Gal(b1-4)GlcNAc
Outline: as §1

[23] = molecular target: Gal(b1-3)GlcNAc(b1-2)Man
Outline: as §1

[24] = molecular target: Gal(b1-3)GlcNAc(b1-2)Man(a1-3)[Gal(b1-3)GlcNAc(b1-2)Man(a1-6)]Man(b1-4)GlcNAc(b1-4)GlcNAc
Outline: as §1

[25] = molecular target: Gal(b1-3)GlcNAc(b1-2)Man(a1-3)[Gal(b1-3)GlcNAc(b1-2)Man(a1-6)]Man(b1-4)GlcNAc(b1-4)[Fuc(a1-6)]GlcNAc
Outline: as §1

[26] = molecular target: Gal(b1-3)GlcNAc(b1-2)Man(a1-3)[GlcNAc(b1-4)][Gal(b1-3)GlcNAc(b1-2)Man(a1-6)]Man(b1-4)GlcNAc(b1-4)GlcNAc
Outline: as §1

[27] = molecular target: Gal(b1-3)GlcNAc(b1-2)[Gal(b1-3)GlcNAc(b1-6)]Man(a1-6)[Gal(b1-3)GlcNAc(b1-2)Man(a1-3)]Man(b1-4)GlcNAc(b1-4)GlcNAc
Outline: as §1

[28] = molecular target: Gal(b1-3)GlcNAc(b1-3)Gal(b1-3)GlcNAc
Outline: as §1

[29] = molecular target: Gal(b1-3)GlcNAc(b1-3)Gal(b1-4)Glc
Outline: as §1

[30] = molecular target: Gal(b1-3)GlcNAc(b1-3)Gal(b1-4)GlcNAc
Outline: as §1

[31] = molecular target: Gal(b1-3)GlcNAc(b1-3)Gal(b1-4)GlcNAc(b1-2)Man(a1-3)[Gal(b1-3)GlcNAc(b1-3)Gal(b1-4)GlcNAc(b1-2)Man(a1-6)]Man(b1-4)GlcNAc(b1-4)GlcNAc
Outline: as §1

[32] = molecular target: Gal(b1-3)GlcNAc(b1-3)Gal(b1-4)GlcNAc(b1-2)[Gal(b1-3)GlcNAc(b1-3)Gal(b1-4)GlcNAc(b1-6)]Man(a1-6)[Gal(b1-3)GlcNAc(b1-3)Gal(b1-4)GlcNAc(b1-2)Man(a1-3)]Man(b1-4)GlcNAc(b1-4)[Fuc(a1-6)]GlcNAc
Outline: as §1

[33] = molecular target: Gal(b1-3)GlcNAc(b1-3)Gal(b1-4)GlcNAc(b1-3)Gal(b1-4)GlcNAc(b1-2)[Gal(b1-3)GlcNAc(b1-3)Gal(b1-4)GlcNAc(b1-3)Gal(b1-4)GlcNAc(b1-6)]Man(a1-6)[Gal(b1-3)GlcNAc(b1-3)Gal(b1-4)GlcNAc(b1-3)Gal(b1-4)GlcNAc(b1-2)Man(a1-3)]Man(b1-4)GlcNAc(b1-4)[Fuc(a1-6)]GlcNAc
Outline: as §1

[34] = molecular target: Gal(b1-3)GlcNAc(b1-3)Gal(b1-4)GlcNAc(b1-6)[Gal(b1-3)GlcNAc(b1-3)]Gal(b1-4)Glc
Outline: as §1

[35] = molecular target: Gal(b1-3)GlcNAc(b1-3)Gal(b1-4)[Fuc(a1-3)]GlcNAc
Outline: as §1

[36] = molecular target: Gal(b1-3)GlcNAc(b1-3)Gal(b1-4)[Fuc(a1-3)]GlcNAc(b1-6)[Gal(b1-3)GlcNAc(b1-3)]Gal(b1-4)Glc
Outline: as §1

[37] = molecular target: Gal(b1-3)GlcNAc(b1-3)GalNAc
Outline: as §1

[38] = molecular target: Gal(b1-3)GlcNAc(b1-6)Gal(b1-4)GlcNAc
Outline: as §1

[39] = molecular target: Gal(b1-3)GlcNAc(b1-6)GalNAc
Outline: as §1

[40] = molecular target: Gal(b1-3)GlcNAc(b1-6)[Gal(b1-3)]GalNAc
Outline: as §1

[41] = molecular target: Gal(b1-3)GlcNAc6S
Outline: as §1

[42] = molecular target: Gal(b1-3)[Fuc(a1-4)]GlcNAc
Outline: as §1

[43] = molecular target: Gal(b1-3)[Fuc(a1-4)]GlcNAc(b1-2)Man
Outline: as §1

[44] = molecular target: Gal(b1-3)[Fuc(a1-4)]GlcNAc(b1-2)Man(a1-3)[Gal(b1-3)[Fuc(a1-4)]GlcNAc(b1-2)Man(a1-6)]Man(b1-4)GlcNAc(b1-4)GlcNAc
Outline: as §1

[45] = molecular target: Gal(b1-3)[Fuc(a1-4)]GlcNAc(b1-2)Man(a1-3)[Gal(b1-3)[Fuc(a1-4)]GlcNAc(b1-2)Man(a1-6)]Man(b1-4)GlcNAc(b1-4)[Fuc(a1-6)]GlcNAc
Outline: as §1

[46] = molecular target: Gal(b1-3)[Fuc(a1-4)]GlcNAc(b1-3)Gal(b1-3)[Fuc(a1-4)]GlcNAc
Outline: as §1

[47] = molecular target: Gal(b1-3)[Fuc(a1-4)]GlcNAc(b1-3)Gal(b1-4)GlcNAc
Outline: as §1

[48] = molecular target: Gal(b1-3)[Fuc(a1-4)]GlcNAc(b1-3)Gal(b1-4)[Fuc(a1-3)]GlcNAc
Outline: as §1

[49] = molecular target: Gal(b1-3)[Fuc(a1-4)]GlcNAc(b1-6)GalNAc
Outline: as §1

[50] = molecular target: Gal(b1-3)[GlcNAc(b1-6)]GalNAc
Outline: as §1

[51] = molecular target: Gal(b1-3)[Neu5Ac(a2-6)]GalNAc
Outline: as §1

[52] = molecular target: Gal(b1-3)[Neu5Ac(a2-6)]GlcNAc(b1-4)Gal(b1-4)Glc
Outline: as §1

B1: NK2 (Sus scrofa) (peptide)
chain: KILRGVCKKIMRTFLRRISKDILTGKK
**Q.** Which “glycan array binding signal (z-score)” value [1] does the source give for B1 here?
**A.** -0.12

**Q.** What about the “glycan array binding signal (z-score)” value [2] of the same binder?
**A.** 0.677

**Q.** What about the “glycan array binding signal (z-score)” value [3] of the same binder?
**A.** -0.166

**Q.** And the “glycan array binding signal (z-score)” value [4]?
**A.** -0.334

**Q.** And the “glycan array binding signal (z-score)” value [5]?
**A.** -0.052

**Q.** And the “glycan array binding signal (z-score)” value [6]?
**A.** 0.785

**Q.** What about the “glycan array binding signal (z-score)” value [7] of the same binder?
**A.** -0.801

**Q.** And the “glycan array binding signal (z-score)” value [8]?
**A.** -1.14

**Q.** And the “glycan array binding signal (z-score)” value [9]?
**A.** -0.908

**Q.** And the “glycan array binding signal (z-score)” value [10]?
**A.** -0.234

**Q.** What about the “glycan array binding signal (z-score)” value [11] of the same binder?
**A.** -0.475

**Q.** And the “glycan array binding signal (z-score)” value [12]?
**A.** -0.253

**Q.** What about the “glycan array binding signal (z-score)” value [13] of the same binder?
**A.** -0.35

**Q.** And the “glycan array binding signal (z-score)” value [14]?
**A.** -0.889

**Q.** And the “glycan array binding signal (z-score)” value [15]?
**A.** 0.709

**Q.** And the “glycan array binding signal (z-score)” value [16]?
**A.** -0.853

**Q.** What about the “glycan array binding signal (z-score)” value [17] of the same binder?
**A.** 1.13

**Q.** And the “glycan array binding signal (z-score)” value [18]?
**A.** 0.625

**Q.** And the “glycan array binding signal (z-score)” value [19]?
**A.** -0.531

**Q.** And the “glycan array binding signal (z-score)” value [20]?
**A.** -0.745

**Q.** What about the “glycan array binding signal (z-score)” value [21] of the same binder?
**A.** 0.076

**Q.** What about the “glycan array binding signal (z-score)” value [22] of the same binder?
**A.** 0.363

**Q.** And the “glycan array binding signal (z-score)” value [23]?
**A.** -0.625

**Q.** What about the “glycan array binding signal (z-score)” value [24] of the same binder?
**A.** 0.159

**Q.** And the “glycan array binding signal (z-score)” value [25]?
**A.** 0.131

**Q.** And the “glycan array binding signal (z-score)” value [26]?
**A.** 1.74

**Q.** What about the “glycan array binding signal (z-score)” value [27] of the same binder?
**A.** 0.125

**Q.** And the “glycan array binding signal (z-score)” value [28]?
**A.** -0.226

**Q.** And the “glycan array binding signal (z-score)” value [29]?
**A.** -0.675

**Q.** And the “glycan array binding signal (z-score)” value [30]?
**A.** -0.572

**Q.** And the “glycan array binding signal (z-score)” value [31]?
**A.** -2.72

**Q.** What about the “glycan array binding signal (z-score)” value [32] of the same binder?
**A.** -0.369

**Q.** And the “glycan array binding signal (z-score)” value [33]?
**A.** 0.747

**Q.** What about the “glycan array binding signal (z-score)” value [34] of the same binder?
**A.** -0.037

**Q.** And the “glycan array binding signal (z-score)” value [35]?
**A.** 0.446

**Q.** And the “glycan array binding signal (z-score)” value [36]?
**A.** -0.036

**Q.** What about the “glycan array binding signal (z-score)” value [37] of the same binder?
**A.** -0.33

**Q.** And the “glycan array binding signal (z-score)” value [38]?
**A.** -0.099

**Q.** And the “glycan array binding signal (z-score)” value [39]?
**A.** -1.01

**Q.** And the “glycan array binding signal (z-score)” value [40]?
**A.** 0.758

**Q.** What about the “glycan array binding signal (z-score)” value [41] of the same binder?
**A.** 1.65

**Q.** And the “glycan array binding signal (z-score)” value [42]?
**A.** -0.634

**Q.** What about the “glycan array binding signal (z-score)” value [43] of the same binder?
**A.** 0.753

**Q.** And the “glycan array binding signal (z-score)” value [44]?
**A.** -0.904

**Q.** What about the “glycan array binding signal (z-score)” value [45] of the same binder?
**A.** -0.004

**Q.** What about the “glycan array binding signal (z-score)” value [46] of the same binder?
**A.** -0.659

**Q.** What about the “glycan array binding signal (z-score)” value [47] of the same binder?
**A.** -0.552

**Q.** And the “glycan array binding signal (z-score)” value [48]?
**A.** -1

**Q.** What about the “glycan array binding signal (z-score)” value [49] of the same binder?
**A.** -1.29

**Q.** What about the “glycan array binding signal (z-score)” value [50] of the same binder?
**A.** -0.304

**Q.** And the “glycan array binding signal (z-score)” value [51]?
**A.** 0.096

**Q.** And the “glycan array binding signal (z-score)” value [52]?
**A.** 0.022
